Measurements taken from PubChem BioAssay AID540256 (National Center for Advancing Translational Sciences (NCATS), 2011).
Screen size: about 300,000 compounds; about 3,700 (1.2%) were called active. The shares of active, inactive and inconclusive entries below differ from those in the screen. Calls come from the whole dose curve; tested in HEK293 cells. Potencies beside an inconclusive call are fits to weak or partial responses and may not hold up.

Test: qHTS for Inhibitors of binding or entry into cells for Lassa Virus; note: nearly all actives have a fitted effect of over 50% in size
Conditions: Lassa virus pseudotype entry inhibition, cell reporter; activity change, negative = inhibition: at 37.9 µM (top of the series) unless noted
% is set by controls: 0 for no effect and ±100 for the full control effect; potency is the fitted concentration of half-maximal effect.

Structure (SMILES) | Potency | activity change, negative = inhibition
O=C1C2C3c4ccccc4C(c4ccccc43)C2C(=O)N1Cc1ccco1 (stereo not drawn) | inconclusive: 22.4 µM [inhibitor, single point] | –
O=C(Nc1cccc([N+](=O)[O-])c1)NC1CCCCCCC1 | inconclusive: 28.2 µM [inhibitor, partial curve, poor fit] | –
CCOc1nc(-c2ccccc2)ccc1-c1noc(-c2ccc(C)cc2)n1 | – | inactive: -2.39% [at 46.1 µM]
O=C(Cn1cc(SCc2cccc(Cl)c2)c2ccccc21)N1CCCCC1 | inconclusive: 10 µM [activator, partial curve] | –
CC(=O)c1ccc(OCc2cc(C(=O)N3CCOCC3)no2)cc1 | inconclusive: 35.5 µM [inhibitor, single point] | –
CCOc1ccc(NC(=O)CC2C(=O)N(c3ccccc3)C(=O)N2CCc2sccc2C)cc1 (stereo not drawn) | inconclusive: 14.1 µM [inhibitor, partial curve, poor fit] | –
Cc1cc(-c2nn(C)c(=O)c3ccccc23)ccc1CNC(=O)NC1CCCCC1 | inconclusive: 2 µM [inhibitor, full curve, poor fit] | –
COc1cc(NC(=O)c2cnc(NCc3ccccc3)nc2C)cc(OC)c1OC | – | inactive: -25.5% [at 46.1 µM]
COc1ccc(/C=C/c2nc(C#N)c(NCc3ccc(C)cc3)o2)cc1OC | inconclusive: 25.1 µM [inhibitor, single point] | –
NNC(=S)NCc1ccc2c(c1)OCO2 | inconclusive: 14.6 µM [inhibitor, partial curve, poor fit] | –
Cc1cc(NC(=O)COC(=O)C2CC(=O)N(c3cccc(C)c3C)C2)no1 (stereo not drawn) | inconclusive: 3.98 µM [inhibitor, single point] | –
Cc1nn(CC(=O)Nc2ccc3c(c2)nc2n3CCN(C3CCCCC3)C2)c(=O)c2ccccc12 | inconclusive: 15.8 µM [inhibitor, partial curve, poor fit] | –
CCc1nnc(NC(=O)CSc2nnc(CSc3nc(C)cc(C)n3)n2C)s1 | – | inactive: -8.34%
Cc1cc(C)c(NC(=O)CS(=O)CC(=O)N2CCN(c3ccc(F)cc3)CC2)c(C)c1 (stereo not drawn) | – | inactive: 14.5%
O=S1(=O)N[C@H](Cc2ccccc2)COc2cc(N3CCCCC3)ccc21 | inconclusive: 14.1 µM [activator, partial curve] | –
O=C(Nc1nc(-c2ccccc2)cs1)NC1CCCCC1 | inconclusive: 23.1 µM [inhibitor, single point] | –
NC1=NCC2c3ccccc3Cc3ccccc3N12 (stereo not drawn) | – | inactive: 8.56%
Cc1ccc(C)c(OCC(=O)Nc2nc3ccc([N+](=O)[O-])cc3s2)c1 | – | inactive: 3.76%
O=C(CCCc1ccccn1)c1ccc(-c2ccccc2)cc1 | inconclusive: 35.5 µM [inhibitor, single point] | –
C[C@@H](C(=O)NCC1CC1)[C@H]1C[C@]1(C)[C@H](NC(=O)OCc1ccccc1)c1ccccc1 | inconclusive: 5.17 µM [inhibitor, full curve] | –
C=CCn1c(=N)n(CC(O)c2ccco2)c2ccccc21 (stereo not drawn) | – | inactive: -9.55%
COCCNC(=S)N(CCc1c(C)[nH]c2ccc(C)cc12)Cc1cc(OC)c(OC)c(OC)c1 | inconclusive: 16.4 µM [inhibitor, single point] | –
CN1C(=O)/C(=N\OC(=O)c2cccc3ccccc23)c2ccccc21 | inconclusive: 10.3 µM [inhibitor, partial curve, poor fit] | –

Record cards (already shown):
O=C1C2C3c4ccccc4C(c4ccccc43)C2C(=O)N1Cc1ccco1 (stereo not drawn) as listed: Potency: inconclusive: 22.4 µM [inhibitor, single point]
COc1cc(NC(=O)c2cnc(NCc3ccccc3)nc2C)cc(OC)c1OC as listed: activity change, negative = inhibition: inactive: -25.5% [at 46.1 µM]
NC1=NCC2c3ccccc3Cc3ccccc3N12 (stereo not drawn) as listed: activity change, negative = inhibition: inactive: 8.56%

(more compounds)

Structure (SMILES) | Potency | activity change, negative = inhibition
CN(c1nnc(NC(=O)Nc2ccccc2C(F)(F)F)s1)C1CCCCC1 | – | inactive: -0.103% [at 46.1 µM]
CS(=O)(=O)CC[C@@H](C(=O)NCCc1ccccc1)N1Cc2ccccc2C1=O | – | inactive: -1.47% [at 46.1 µM]
Cc1cc(C)c2c(=O)cc(C(=O)Nc3sc4c(c3C(=O)NCc3ccco3)CCCC4)oc2c1 | inconclusive: 35.5 µM [inhibitor, single point] | –
Cc1ccc(OC2=NS(=O)(=O)c3ccccc32)cc1 | inconclusive: 0.116 µM [activator, partial curve, poor fit] | –
COc1cc2c(cc1Nc1nc(N3CCc4ccccc43)c3cc[nH]c3n1)N(C(=O)CN(C)C)CC2 | inconclusive: 31.5 µM [inhibitor, single point] | –
O=C(Nc1cccc2ncccc12)c1cccnc1 | inconclusive: 14.1 µM [activator, partial curve] | –
O=C(Nc1ccc(-c2cnco2)cc1)c1ccc(F)cc1F | inconclusive: 3.55 µM [activator, single point] | –
CCOc1ccc(-c2nnc(-c3ccccc3)o2)cc1 | inconclusive: 8.91 µM [inhibitor, partial curve, poor fit] | –
CC(=O)N1c2ccccc2NC2=C(C(=O)CCC2)C1c1cccnc1 (stereo not drawn) | – | inactive: -0.0051%
CC[n+]1c(C)sc2c3ccsc3ccc21 | inconclusive: 6.31 µM [inhibitor, single point] | –
C/C(=N\NC(=S)NCc1ccccc1)c1cccc(Br)c1 | inconclusive: 7.08 µM [inhibitor, partial curve, poor fit] | –
CC(C)(C)OC(=O)N1CCC(c2c(C(=O)N3CCN(C(=O)c4ccco4)CC3)cnn2-c2cccc(Cl)c2)CC1 | – | inactive: 27% [at 46.1 µM]
COc1ccc(Nc2ncnc3c2cnn3Cc2ccc(C)cc2)cc1 | inconclusive: 17.8 µM [inhibitor, single point] | –
O=C(NCC1CCOCC1)c1ccc2nc(Cc3cccc(Cl)c3)oc2c1 | inconclusive: 4.47 µM [activator, partial curve, poor fit] | –
CCOC(=O)CN1C(=O)CN(c2ccc(C)c(C)c2)C1=O | inconclusive: 3.55 µM [activator, single point] | –
COc1ccc(N2CCN(C(=O)CNS(=O)(=O)c3ccc(C)cc3)CC2)cc1 | inconclusive: 6.31 µM [inhibitor, partial curve, poor fit] | –
Cc1cc(C)cc(OCCNC(=O)CCc2ccccc2)c1 | inconclusive: 10 µM [inhibitor, partial curve, poor fit] | –
CCOC(=O)c1nnn(C(CC)C(=O)Nc2ccc(F)cc2)c1C(=O)OCC (stereo not drawn) | – | inactive: 19.5% [at 46.1 µM]
O=C(CN1C(=O)NC2(CCCc3ccccc32)C1=O)NCc1ccc(Cl)cc1Cl (stereo not drawn) | – | inactive: 9.31%
Cc1cccc(-c2cc3nc(C)cc(NCCCN(C)C)n3n2)c1 | inconclusive: 6.51 µM [activator, single point] | –
O=C(C[C@H]1C(=O)N(c2ccccc2)C[C@@H]1Cc1ccccc1)Nc1ccccc1 | inconclusive: 0.0025 µM [inhibitor, full curve, poor fit] | –
O=C(C1COc2ccccc2O1)N(Cc1cccnc1)c1nc2c(F)cccc2s1 (stereo not drawn) | – | inactive: 19.2% [at 46.1 µM]
CN(C(=O)c1cc2c(=O)n3ccccc3nc2s1)C1CCCCC1 | inconclusive: 35.5 µM [inhibitor, single point] | –

Structure (SMILES) | Potency | activity change, negative = inhibition
Cc1cccc2cc(CN(Cc3ccc(F)cc3)Cc3nnnn3C3CCCC3)c(=O)[nH]c12 | inconclusive: 8.2 µM [inhibitor, partial curve, poor fit] | –
N=C1SC(c2ccccc2)C(=O)N1c1ncc(Cc2ccccc2)s1 (stereo not drawn) | inconclusive: 22.4 µM [activator, single point] | –
COc1ccc2c(c1)-c1nc(NC(=O)c3cccc(Br)c3)sc1CC2 | – | inactive: -4.3% [at 46.1 µM]
Cc1cc(=O)oc2c(C(=O)/C=C/c3ccccc3)c(O)ccc12 | – | inactive: 2.11%
Cc1nn(-c2ccccc2)c(/N=C/c2ccccc2O)c1-c1ccccc1 | inconclusive: 0.82 µM [activator, partial curve, poor fit] | –
Cc1ccc2c(c1)cc1c(=O)[nH]ncn12 | – | inactive: -1.89%
CCCN(C(=O)CCc1nc(-c2ccc(C)cc2)no1)c1ccc(OCC)cc1 | inconclusive: 8.91 µM [inhibitor, partial curve, poor fit] | –
Cc1c(NC(=O)Nc2ccccc2)c(=O)n(-c2ccccc2)n1C | inconclusive: 5.01 µM [activator, partial curve, poor fit] | –
COc1cc2ccccc2cc1C(=O)OCC(=O)N1CCOCC1 | – | inactive: 14%
CCOC(=O)c1c(C)oc2nc(C)nc(NCC3CCN(Cc4cc(C)ccc4C)CC3)c12 | inconclusive: 2.51 µM [activator, full curve, poor fit] | –
O=C1Nc2ccccc2/C1=C/c1ccccc1Cl | inconclusive: 25.1 µM [inhibitor, partial curve, poor fit] | –
N=c1c2c(-c3ccccc3)c(-c3ccccc3)n(Cc3ccco3)c2ncn1CCN1CCOCC1 | inconclusive: 32.6 µM [inhibitor, single point] | –
O=c1[nH]c(N/N=C\c2ccc3c(c2)OCO3)nc2ccccc12 | inconclusive: 35.5 µM [inhibitor, single point] | –
CCNC(=S)Nc1cc(OC)c(NC(=O)c2ccco2)cc1OC | – | inactive: -8.92%
O=CNC1c2ccccc2CCc2ccccc21 | – | inactive: 10% [at 46.1 µM]
O=c1n(Cc2ccc(F)cc2)c2ccccc2c2nc(-c3ccccc3)nn12 | inconclusive: 3.16 µM [inhibitor, partial curve, poor fit] | –
CCOC(=O)CC(N)c1ccc(OC)cc1 (stereo not drawn) | inconclusive: 11.2 µM [activator, partial curve] | –
Cc1ccccc1/C=C1\CCCc2ccccc2C1=O | inconclusive: 16.4 µM [inhibitor, single point] | –
CCOC(=O)Cn1c(=O)c2c(nc3n2CCCCN3c2ccc(OCC)cc2)n(C)c1=O | – | inactive: 4.35%
c1ccc(-n2cnc3cc(NCc4ccncc4)ccc32)cc1 | inconclusive: 29.1 µM [inhibitor, single point] | –
CCOc1ccc(N2CC(O)=C(c3ccccc3)C2=N)cc1 | inconclusive: 5.01 µM [inhibitor, partial curve, poor fit] | –
O=C(Nc1ccc(F)cc1)Nc1cccnc1Cl | inconclusive: 35.5 µM [inhibitor, single point] | –
